In article PMC12282138:

target: T1, FurC (PerR) (Anabaena sp. PCC 7120) (UniProt A0ACD7RPQ8); test: EMSA; conditions: 100 uM MnCl2; EMSA: 10 mM Bis-Tris-HCl pH 7.5, 40 mM KCl, 0.1 mg/mL BSA, 1 mM DTT, 5% glycerol (+100 uM MnCl2 for FurA/FurC; 5 ug ZnSO4 for FurB), 50-100 ng DNA in 20 uL; recombinant protein; protein details: His-tag (pET-28a); probe letters rebuilt from the primers and the genome
T1 sequence (looked up, limits assumed): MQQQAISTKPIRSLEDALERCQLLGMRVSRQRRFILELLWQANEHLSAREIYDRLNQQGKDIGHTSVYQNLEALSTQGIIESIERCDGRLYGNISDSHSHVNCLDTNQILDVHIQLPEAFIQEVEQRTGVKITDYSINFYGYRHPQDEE

Does “GAAACCCGTCCAACGCAGTGGCTCCCCTACGTGTATTTCAAAAATCAAGTATGAGTCCTATAGTTTTTTTAAACGTTTTTACTAGCACACTCATGTGGTTTCAAAATTACCTTGTTTGCAGTTTTTATGATTTATTTTTTCCCGAAACATAAACATAAACTATCTATTTTTGATATTATTATATAAATTAAATTTTCAATAATTTAATTTGTCAATTAAAGATTTTTGATTATAGATTACAAATCTAAACAAAGCACTTCATGTATATAAATTAATTTCGACTTAAATTATTTATAAATAAGATTTAATATTAAACCAATAAGCTACTTCATGGTGAAAGAAAAAGCATAATTCCTAAATTAACACTATATGCAGC (double strand) [all1651 promoter]” bind?
Result: binds

Does “TTTTGAACAATTTGGTAGCGTGCTTGCAGTACTTTACCGATCATGTGGTGGTTCATGAGCTGGTTACTGAGTTAGTCCTTATATAAGTATTCTCTTGATTGCGTGCTGTTTCCGGAAAGACAAATTACTCTAAGCTCGACTTTATCCAAAATTAAGAACTTGGTTTTCTTTATCTGGTAAAATACCTAGCTTTTTGGCAAATACTTTTTTCACATTTATAGGTTCCCGATGCAGTTGAAAAAGTAAGACTATTGTCTTACAAAGATTTTAGCGATCGCGATCTCATTGCAAAAAAAATGAATTAAAGTCAAGTTTAAGCCCTGCTGGCTGTCTTTATCATAGGCGCTACAGTCGTGGATCTACGGGTTCACT (double strand) [pknE (alr3732) promoter]” bind?
Result: binds

system: T2, FurA (Fur) (Anabaena sp. PCC 7120); test: EMSA; conditions: 100 uM MnCl2; EMSA: 10 mM Bis-Tris-HCl pH 7.5, 40 mM KCl, 0.1 mg/mL BSA, 1 mM DTT, 5% glycerol (+100 uM MnCl2 for FurA/FurC; 5 ug ZnSO4 for FurB), 50-100 ng DNA in 20 uL; recombinant protein; protein details: His-tag (pET-28a); probe letters rebuilt from the primers and the genome
T2 sequence (looked up, limits assumed): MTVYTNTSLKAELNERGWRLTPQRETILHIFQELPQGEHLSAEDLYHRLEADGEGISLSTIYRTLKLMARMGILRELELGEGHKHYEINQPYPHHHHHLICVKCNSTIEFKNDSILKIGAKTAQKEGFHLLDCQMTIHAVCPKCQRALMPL

Does “AAAGGCAAGCACTAAAAGTGGATAACCTGCAATTTCTTTGGTCTACGACTAGTTTGTAGTAGAACCTGCACAATTTGTTAAGGTGGAGCAAATTTACACCACTACAGTAGTGCCAAAAGAGAAAAAAATTGCATTTCCAATGGCGAATCATGGTTAAAAGTGCCGTAAAATCACTGAAATTAGTGCCTGTGAAACTCATGACCTCCTAATCTGTTGTGGTTAAACGCAATAGAGGCATTTGAGGCTAATATCAGCAGGAATTCACCCTTGATTTTTAAAGTCTCCAGTAACTTTATGCAGATGCTAAAAAGTCAAATACTGGCATGAGACAACATAATTCATCAGTTTGGAGAGAGTAAGGAAATTTTGAGCGTAATGACTGAAACTGCAACCGCGCCTTTAACTGGAAAA (double strand) [calA (alr0946) promoter]” bind?
Result: no binding

Does “CAAGAATTATATGCAATCGCATGAGGGTTTATACTTAATTTTGTGAATTTTTGTGCCATGAGCTTAAGGGAAGAAACTGGCTATGAACATGACATATTTACGGTAATTTTACTTCACATATCAGAAAATCTAGTATTAATACTGAAATAAAAATAAAATTTTAAATGATACATGATAGAGATTAGTAAAGTCACAGGTGTTGTAATTACGTATGCTGAGGTAAAATATAACTACTAGTATTTATCAGGAATTACAAGATATTTATGGCGATGGCTCACACCTAAAAATATGGAACTTTACCTAATTCGTCATGGCATCGCTGAAGCA (double strand) [sixA (alr0221) promoter]” bind?
Result: binds

Does “CATTTTGTTAGTTGTCAATTGTCAGTTGTCAGTTGTTTTTTCATTACCAATGACTAATGACCAATGACTAAGGATCAGTTTTACTTATCATTTTTCTCCTTAACAATCAAGCCGACTAAGGAGACAACTTTTTACTCGACTTTAGAAAACTTAAATAAATATAGTTTAGCAGTGATTGATTAACTATATATAGTTATCCCGATTATCAAAATTAAATTGTCTTGCAAATATTGGGAATTGTGCAACAATTTTGCTTATGAGTGTAATATACTTGGCTAGGCTGAGATAAAAACTAAAGGATATTGTTCCTATTAGCTCAACGTCAGCTAAAATAAAATCGATTCAACTACTTAAACCCCTGATTTTTGACCTAAGTTGATGCCTAAACAG (double strand) [calB (all2080) promoter]” bind?
Result: binds

Does “CGATCGCAATTCCAAGATTGGGCAAATAAAATCACAGAACGCTTTGCTTATAACGTGCAGTTTCAAGCTATAGGAGAAGAAGACCCAGAATTTGGTTCACCGACACAAATGGCACGTTTTTGTCAATAAGTAAGGGACTGGGGAGCAGGGGGAGAAAAGAACTGTTGACTGTTGACCAATGACTAATAACTATGAAAATTACTATTCCTGAATTATCTTTAGTTGTCTTGATTGGTGCTTCTGGTGCAGGTAAATCAACATTCGCACGTAAGCACTTTCAACCGTTTGAAGTAATATCTTCTGATTTTTGTCGTGGGTTAGTTTCCAAT (double strand) [prpA (alr3731) promoter]” bind?
Result: no binding

Does “CTGTGTACTTATCAGTAACGGTTTCCATTTTTATGCAGTAATTTCACAATTTTTTAGCAGCCGGCCGTTTCTATAAGCTTCTTACACCACCAAATATGAAAAAGGGAATAGACCGAGGGATGAGAGGTTAATATTTTTTACTGAAAAGTGTTGCCTGACCTACAAAATTGGGAACTATGATTTATACACTACCCCTATGAGTAGAGTCGGTCAAGCAAGTAATAGCTTAATATTTTGGTATAACTATTAACTTAATAATCGCCTCCGGGTTATTGTCTATACATTTTTACTGGAAGTACAGTAGTTTGTGGATGAGGACTATAAATTAGGCTAAACCAGGAATAGAGCCGGATGACGATGGCTGAACTACAGATTACACTGTGTGTAATGTCTATCGCTCGTTGCTTTTAGCAACACTTAAATAAATTCTTAAAAGTCTTAATCCTGTTATATCAAAAATTACCTATGTCATTGCAACAGCGTAATTTTGG (double strand) [cyaB2 (all1904) promoter]” bind?
Result: binds

Does “GAAACCCGTCCAACGCAGTGGCTCCCCTACGTGTATTTCAAAAATCAAGTATGAGTCCTATAGTTTTTTTAAACGTTTTTACTAGCACACTCATGTGGTTTCAAAATTACCTTGTTTGCAGTTTTTATGATTTATTTTTTCCCGAAACATAAACATAAACTATCTATTTTTGATATTATTATATAAATTAAATTTTCAATAATTTAATTTGTCAATTAAAGATTTTTGATTATAGATTACAAATCTAAACAAAGCACTTCATGTATATAAATTAATTTCGACTTAAATTATTTATAAATAAGATTTAATATTAAACCAATAAGCTACTTCATGGTGAAAGAAAAAGCATAATTCCTAAATTAACACTATATGCAGC (double strand) [all1651 promoter]” bind?
Result: binds

Does “GAGATTAGCTAGTATTGCTCCTAAATATTAATGTTTTTTTGTATCAAAATTAACAAAATTTTCAATTTATTAAAATCACATCTATTTTGATGTGATTTGTGCTGTACGTATTTGCGTTGTTGTTTGATATTACATGATAAATTCTTGGTGTAAATATAAACAGTGATAGCAATGTGACATTCTGTAATATACCAAATTTATCTTGTTATTCAAAGTTAATTCCCCAGTATCGAGTCTTAAAAGTCCCTGTGGCAGAGATTAATTTTTAGATAACGACTACGTGCAACCTTAAGATATTGATAAACAAAAAAATACTCAATATGTGTGATGTGTCAGTTAGAAAAACTGTGGACGCACCGAAAAATTATTATTTATGTAACCATCTAAGAGGCTATTT (double strand) [all1804 promoter]” bind?
Result: binds

Does “GAGTATCTGAATTACTTGATAGCGATTGTTCAGCAGAATAGATGTCATGGAAAGTTCAAAGTGTCCGCCCTTTCTCAATGTACATCACGATGTGGTGATAGGTTATGTTCCCGCGAATATGCAGGATATCCCATTGCTATGGCAATTTTGTTGTAGCTATACCAATTCAATTAATGATTGCAACACATCATTGGGTGAAATGAAGACGCGATTAATCGCGTATCTACAGATGGTTGATTGGTCGCATTCTTTTTTCAAATTGGTATTACTTTGAGAATTTAAATAAGGTGATACGCACCTAGAGCAAATATTTTTGCGTCAGATCTTTCCATAGTTAAGAGTCCAGAGTTAAAGGCTAGCTTGGACTGTGGACTGTGGA (double strand) [pknD (alr4368) promoter]” bind?
Result: binds

Does “GGCTTACATCGTAGCCAGCCATCTCTAGGTTGACAGCAACAAGTTCTGAAATCGCTGGGTCATCGTCTATTACAAGAATCCTTGGCATTCTTAAAAAATTATTACTACTTATTAAGGATAAATAAGAACCTTTGGTAGATACAAAGATTTCTGTCTTGATTATAAAAAAGATTTTAAATCTAACATAAACCTTAAAACTACTAGTATGAAGAAAACAAAACTAAAATTACATTAAATTCGCAGTATGATATGTTTCCCTCCCTACAATCCGCCTGTGTTTCTGAGAAATGGTGTTGTTACAACTGTTTACACTACTTTGTGGGG (double strand) [rpaA (all0129) promoter]” bind?
Result: binds

Does “GTCCTAATTGACGTATGATGCGATAGCGATTATCTACAACTTGCTTCACAGCAAGCGGTAAAGGCTCACCGCAGTGAGTACAAAAACGATTACCGCCATTATTTGCGTGTTGCTTACTGCAATAAACCTGCATGGTGCTGAAGGATAGGTAAGGGTTTTTCTAAATTACTACAACAACTGTAGTCGCATTTACGAATATTCTCTAAAGATGGGGAGTGGGAAGTCGAGGAACAGAACAGGTAAGAGAGAGGGGAAATATTATGTAAGGAAGTTGTACTGCAATGTTTCTAATGACCACTGACTTTTTTTGAATTTTGTTGGCGTAGCCTTGCCGTAGGCTATTTTGAATTCCCCGAAGGGGTTAGGTGCATTATG (double strand) [alr2411-12 promoter]” bind?
Result: no binding

Does “TAGTTATCTATACTTAATTCCTCGAAATATAAAATATTTATAATTATTAATTAATAAATTATAAAAAAATCTTAAATCACAAGAAATAAATTGAAAATCAAAAATTCAATTAATATTCTTAGGCTCTAAATACCTGAGTAAATACAGTGATTGTGTGGCTATAATATAAAATTTTCAGTATTTTTACTGTTTAAAGAATAAAATATAAAAACTAGAGATAGGTAACAATAGTCCATCTTTATATGGTTTTCATCTATCTTAAGTAATGTATTAAGATGACATTAAAATTACTGGGTAATATTATATTTAGAGTTAAGACTATATCAGTATATGTAAGGGTCTCTTGTTTCCAGAGACAATATATTCATGAATCGGCAGAATATCAGTAATTATTAGCTAGAAAAAAGGCAAAAAATACAGCCATGACTATGACAATTC (double strand) [all2416 promoter]” bind?
Result: no binding

Does “TTTCATTAGTCACTTAAGATAGCAATACTATTAGAGATTATTTATAAAGTAAATATTAAGTAGGGGAGGCAAAACGCGGTGTAGATATTCTTTCCGCTTTATTACCGTTGTGTTATGGCTTCAGCCTAACGCACTGCTACATAACACGTTTCATTAAGCGCTTAAATTCATTTTTTTATGACTAATAATATCGAAATCCGTGCCTAAAACAACACCAGTTGTTACAACGGAGGAAACATCCGCAACGCACTGACTCCCCTACAGAAATTTGATTTTTACTTTATAAATAACCTCTTAGCAATCACCTTGAATTGATGAAATACTTTTTTATTATTCGACTCATCTATTTTAATTTCTATTTTAATGAATGATGAACTTCTGCACGTAATTCAACATATATATTGAGATTGCATTTTATTCATTTTTTTCAATCTGCCATTGTACTGATAA (double strand) [all4896 promoter]” bind?
Result: binds

Does “TTTTGAACAATTTGGTAGCGTGCTTGCAGTACTTTACCGATCATGTGGTGGTTCATGAGCTGGTTACTGAGTTAGTCCTTATATAAGTATTCTCTTGATTGCGTGCTGTTTCCGGAAAGACAAATTACTCTAAGCTCGACTTTATCCAAAATTAAGAACTTGGTTTTCTTTATCTGGTAAAATACCTAGCTTTTTGGCAAATACTTTTTTCACATTTATAGGTTCCCGATGCAGTTGAAAAAGTAAGACTATTGTCTTACAAAGATTTTAGCGATCGCGATCTCATTGCAAAAAAAATGAATTAAAGTCAAGTTTAAGCCCTGCTGGCTGTCTTTATCATAGGCGCTACAGTCGTGGATCTACGGGTTCACT (double strand) [pknE (alr3732) promoter]” bind?
Result: binds

Construct, isoform or probe ends are uncertain for at least one entry. For part of these data: No signal at the amounts used counts as a negative. Protein sequences can lack the tags named with them.
